Patent US20030229105A1, “Treatment of autoimmune disorders” (Cyclacel Limited, priority 2002, published 2003)
At least one compound was matched to its structure with a doubt left.

Columns and labels:
Format in all cases: cell-based
CEM (uninfected) cells = experiment: Cell cycle analysis (PI staining, FACS) of uninfected CEM cells; conditions: TNF-α, 10 μM, 48 h
Text: We next examined the cellular effects of these drugs on the cell cycle progression of HIV-1-infected and uninfected cells. […]. […] Therefore, the selective killing mechanism by this particular drug might partially be responsible for the decrease in HIV-1 titers observed in the infected cells. We also reasoned that Purvalanol A may be toxic to uninfected induced cells by increasing the G2/M population and the increase of apoptosis, as is evident in FIG. 2A. […] U937 is the uninfected monocytic parental cell line, and U1 is the U937 cell line infected with two copies of integrated HIV-1, only one of which is wild type for viral progeny formation. […]. This is in contrast to many apoptosis-inducing agents, such as TNF-α DNA-damaging agents (gamma irradiation, mitomycin C [6]), or sodium butyrate, in which cases the apoptosis of HIV-1-infected cell accompanies massive production and the release of infectious HIV-1 virions.
Forty-eight hours later, cells were collected, fixed with 70% ethanol, PI stained, and analyzed by FACS. […]
For fluorescence-activated cell sorting (FACS) analysis, cells were stained with a cocktail of propidium iodide (PI) buffer (PBS with Ca^2+ and Mg^2+, RNase A [10 μg/ml], NP-40 [0.1%], and PI [50 μg/ml]) followed by cell-sorting analysis. FACS data acquired were analyzed by ModFit LT software (Verity Software House, Inc.).

HIV-1 LTR = experiment: HIV-1 LTR-CAT reporter, basal transcription in CEM cells; conditions: ca. 10 μM, 20 h
Text: We next sought to determine whether the inhibition of HIV-1 transcription, observed above, could be mediated specifically by cdk inhibitors or by general cell cycle inhibitors. To distinguish between the two possibilities, we performed transfection experiments with all three cdk inhibitors tested above and two other well-established cell cycle inhibitors, namely, hydroxyurea and nocodazole. Hydroxyurea blocks DNA replication by inhibiting ribonucleotide reductase and thus arrests cell cycle progression at the G1/S checkpoint, while nocodazole blocks at G2/M by promoting tubulin depolymerization. […] Therefore, the basal transcription of HIV-1 was inhibited by purine analogs and not general cell cycle inhibitors.
(§1) FIG. 3 discloses inhibition of HIV-1 basal and activated transcription by cdk inhibitors. […] The graphs at the bottom of the figure represent the effect of various concentrations of general cell cycle inhibitors (hydroxyurea and nocodazole) on CEM cells. (B) Inhibition of activated transcription in CEM cells was examined using transfected HIV-1 LTR-CAT, together with pcTat plasmid. (C) Experiment similar experiment to that in panel B, except that pcTat plasmid was replaced with E. coli-expressed and purified Tat protein
Lymphocyte CEM (12D7) cells were grown to mid-log phase and were processed for protein electroporation according to a previously published procedure (24). […]

[1] = system: HIV-1 LTR (Tat transactivation); experiment: HIV-1 LTR-CAT reporter, Tat-activated transcription in CEM cells; conditions: LTR-CAT plus pcTat (CMV-driven Tat)
Text: Activated transcription by Tat was also examined in CEM cells using the LTR-CAT reporter and pcTat (CMV-driven Tat). […] .
as §1
Lymphocyte CEM (12D7) cells were grown to mid-log phase and were processed for protein electroporation according to a previously published procedure (24). Only one modification was introduced, in which the cells were electroporated at 230 V and plated in 10 ml of complete RPMI 1640 medium for 18 h prior to harvest and chloramphenicol acetyl transferase (CAT) assay. […] Cells were freeze-thawed three times with intermittent vortexing and then incubated for 3 min at 68° C., followed by centrifugation. Supernatants were transferred to 1.5-ml Eppendorf tubes and centrifuged, and the supernatants were used for the determination of protein concentration. CAT assays were performed with 2 μg of protein according to the method of Gorman et al. (15).

Cn1cnc2c(NCc3ccccc3)nc(NCCO)nc21 [Olomoucine]
effect on cell cycle progression (CEM (uninfected) cells): did not change the cell cycle progression significantly | inhibition of HIV-1 basal transcription (CAT activity) (HIV-1 LTR): dramatic inhibition | inhibition of Tat transactivation (CAT activity) [1]: impaired
